Experimental data as given in paper PMC11077064, “The origin recognition complex requires chromatin tethering by a hypervariable intrinsically disordered region that is functionally conserved from sponge to man”.

Chains of the proteins cited; added tags and fusions are not shown. A line that says so, or that is headed by a name, gives the form on record, which may keep a tag or linker. Residues count along the entry.
UniProt O16810, 187-549: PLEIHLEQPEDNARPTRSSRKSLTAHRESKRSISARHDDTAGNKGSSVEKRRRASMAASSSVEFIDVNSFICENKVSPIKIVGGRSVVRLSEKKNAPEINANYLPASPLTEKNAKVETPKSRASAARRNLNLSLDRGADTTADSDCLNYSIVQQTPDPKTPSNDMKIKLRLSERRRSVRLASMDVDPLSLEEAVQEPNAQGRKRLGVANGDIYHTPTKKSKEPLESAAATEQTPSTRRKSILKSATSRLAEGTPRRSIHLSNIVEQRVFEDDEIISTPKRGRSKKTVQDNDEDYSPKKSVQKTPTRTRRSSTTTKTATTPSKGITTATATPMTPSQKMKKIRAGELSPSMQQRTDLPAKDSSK
DmORC holocomplex (Orc1-6) (Drosophila melanogaster), one chain, as listed by the source, chain 3 of 4: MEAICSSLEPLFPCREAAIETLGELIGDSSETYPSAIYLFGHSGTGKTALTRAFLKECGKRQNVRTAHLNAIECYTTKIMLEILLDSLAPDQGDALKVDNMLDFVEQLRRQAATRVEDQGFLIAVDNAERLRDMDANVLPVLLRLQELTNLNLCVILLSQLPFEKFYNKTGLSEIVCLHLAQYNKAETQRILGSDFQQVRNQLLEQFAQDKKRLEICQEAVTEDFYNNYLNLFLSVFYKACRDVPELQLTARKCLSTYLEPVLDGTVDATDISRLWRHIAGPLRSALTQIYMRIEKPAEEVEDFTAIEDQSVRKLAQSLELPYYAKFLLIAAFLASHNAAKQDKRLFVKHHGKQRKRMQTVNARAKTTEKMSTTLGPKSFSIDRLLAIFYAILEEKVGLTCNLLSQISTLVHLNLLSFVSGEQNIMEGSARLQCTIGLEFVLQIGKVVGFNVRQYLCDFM
DmORC holocomplex (Orc1-6) (Drosophila melanogaster), one chain, as listed by the source, chain 4 of 4: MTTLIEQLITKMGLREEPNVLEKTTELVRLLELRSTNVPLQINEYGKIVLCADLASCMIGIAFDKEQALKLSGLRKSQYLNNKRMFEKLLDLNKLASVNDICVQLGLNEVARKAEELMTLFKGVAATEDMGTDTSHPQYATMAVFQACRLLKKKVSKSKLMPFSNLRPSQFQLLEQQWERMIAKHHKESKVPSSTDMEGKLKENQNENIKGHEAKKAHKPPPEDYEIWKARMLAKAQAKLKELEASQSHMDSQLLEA
DmORC holocomplex (Orc1-6) (Drosophila melanogaster), one chain, as listed by the source, chain 2 of 4: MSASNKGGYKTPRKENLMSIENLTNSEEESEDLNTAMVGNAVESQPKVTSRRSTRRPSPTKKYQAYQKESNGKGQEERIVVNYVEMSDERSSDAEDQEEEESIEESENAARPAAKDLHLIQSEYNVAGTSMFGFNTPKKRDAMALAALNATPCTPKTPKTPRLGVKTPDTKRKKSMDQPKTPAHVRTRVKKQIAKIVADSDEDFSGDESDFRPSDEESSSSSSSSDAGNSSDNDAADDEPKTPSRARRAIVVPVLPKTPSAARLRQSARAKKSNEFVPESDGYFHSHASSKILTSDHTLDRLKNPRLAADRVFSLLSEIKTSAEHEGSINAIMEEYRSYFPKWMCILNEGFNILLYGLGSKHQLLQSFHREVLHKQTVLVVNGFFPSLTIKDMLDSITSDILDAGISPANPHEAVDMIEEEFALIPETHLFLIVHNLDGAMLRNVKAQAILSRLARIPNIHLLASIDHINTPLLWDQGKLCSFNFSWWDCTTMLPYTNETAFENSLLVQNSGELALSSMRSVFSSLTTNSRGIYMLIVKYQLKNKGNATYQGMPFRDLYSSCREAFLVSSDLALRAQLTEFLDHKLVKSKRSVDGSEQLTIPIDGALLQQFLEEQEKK
DmORC holocomplex (Orc1-6) (Drosophila melanogaster), one chain, as listed by the source, chain 1 of 4: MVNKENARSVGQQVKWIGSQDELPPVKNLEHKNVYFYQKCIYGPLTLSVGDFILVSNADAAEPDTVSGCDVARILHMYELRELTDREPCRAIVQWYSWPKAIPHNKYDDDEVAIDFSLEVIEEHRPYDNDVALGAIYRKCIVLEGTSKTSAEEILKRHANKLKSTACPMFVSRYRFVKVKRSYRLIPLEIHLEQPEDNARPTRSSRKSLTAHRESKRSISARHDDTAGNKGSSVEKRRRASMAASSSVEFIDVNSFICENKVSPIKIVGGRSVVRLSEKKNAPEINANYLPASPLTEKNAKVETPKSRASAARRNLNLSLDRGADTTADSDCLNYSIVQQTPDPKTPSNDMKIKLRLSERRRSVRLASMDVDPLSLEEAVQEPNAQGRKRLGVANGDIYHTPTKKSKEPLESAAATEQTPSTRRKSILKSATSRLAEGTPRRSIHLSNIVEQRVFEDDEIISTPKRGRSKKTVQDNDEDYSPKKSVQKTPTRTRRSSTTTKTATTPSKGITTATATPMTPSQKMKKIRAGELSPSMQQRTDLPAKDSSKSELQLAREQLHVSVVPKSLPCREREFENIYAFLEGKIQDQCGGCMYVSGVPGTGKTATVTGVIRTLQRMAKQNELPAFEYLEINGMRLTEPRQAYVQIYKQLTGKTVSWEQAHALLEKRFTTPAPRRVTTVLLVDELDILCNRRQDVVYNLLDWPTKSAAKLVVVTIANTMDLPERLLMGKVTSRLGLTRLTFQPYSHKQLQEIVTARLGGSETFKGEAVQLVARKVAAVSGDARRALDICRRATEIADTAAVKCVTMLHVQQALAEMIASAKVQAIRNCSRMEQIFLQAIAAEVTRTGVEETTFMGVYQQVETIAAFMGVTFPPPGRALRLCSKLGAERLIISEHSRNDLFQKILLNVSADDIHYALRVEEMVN

What was measured:
[1] = system: BpOrc1 IDR (Brachionus plicatilis); experiment: fluorescence polarization; settings: no saturation, Kd N.D.; FP: same with 150 or 300 mM K-glutamate, 5 mM MgOAc, 0 or 1 mM ATP, RT 30 min; recombinant protein; protein details: His6-MBP removed by TEV
[2] = target: DmOrc1 IDR treated with CDK2/CycE (Drosophila melanogaster) (UniProt O16810); experiment: fluorescence polarization; settings: 5 uM IDR, 1 uM CDK2/CycE, 1 mM ATP, also linear decrease in time course with 50 nM kinase (Fig 3K); FP: same with 150 or 300 mM K-glutamate, 5 mM MgOAc, 0 or 1 mM ATP, RT 30 min; recombinant protein; residues 187-549; protein details: His6-MBP removed by TEV
[3] = system: HdOrc1 IDR (Hypsibius dujardini); experiment: fluorescence polarization; settings: no saturation, Kd N.D.; FP: same with 150 or 300 mM K-glutamate, 5 mM MgOAc, 0 or 1 mM ATP, RT 30 min; recombinant protein; protein details: His6-MBP removed by TEV
[4] = target: DmOrc1 IDR treated with CDK1/CycA (Drosophila melanogaster) (UniProt O16810); experiment: fluorescence polarization; settings: 5 uM IDR, 1 uM CDK1/CycA, 1 mM ATP; FP: same with 150 or 300 mM K-glutamate, 5 mM MgOAc, 0 or 1 mM ATP, RT 30 min; recombinant protein; residues 187-549; protein details: His6-MBP removed by TEV
[5] = system: DmORC holocomplex (Orc1-6) (Drosophila melanogaster); experiment: fluorescence polarization; settings: no ATP, 300 mM KGlut, 5 mM MgOAc, Kd N.D., binding strictly ATP-dependent, FP: same with 150 or 300 mM K-glutamate, 0 or 1 mM ATP, RT 30 min, recombinant protein, protein details: Orc1 His6 and Orc4 MBP, TEV-cleaved
[6] = target: pOrc1 IDR (CDK2/CycE phosphorylated) (Drosophila melanogaster) (UniProt O16810); experiment: EMSA; settings: Kd N.D., >100-fold reduction in affinity, label not stated; EMSA: 50 mM HEPES pH 7.5, 150 mM K-glutamate, 10% glycerol, 1 mM BME, 2 nM DNA, RT 20 min, 1% agarose; recombinant protein; residues 187-549; protein details: His6-MBP removed by TEV
[7] = system: MyOrc1 IDR (Mizuhopecten yessoensis); experiment: EMSA; settings: 600 nM; EMSA: 50 mM HEPES pH 7.5, 150 mM K-glutamate, 10% glycerol, 1 mM BME, 2 nM DNA, RT 20 min, 1% agarose; recombinant protein; protein details: His6-MBP removed by TEV
[8] = system: BpOrc1 IDR (Brachionus plicatilis); experiment: EMSA; settings: 600 nM; EMSA: 50 mM HEPES pH 7.5, 150 mM K-glutamate, 10% glycerol, 1 mM BME, 2 nM DNA, RT 20 min, 1% agarose; recombinant protein; protein details: His6-MBP removed by TEV
[9] = system: DgOrc1 IDR (Dimorphilus gyrociliatus); experiment: EMSA; settings: 600 nM; EMSA: 50 mM HEPES pH 7.5, 150 mM K-glutamate, 10% glycerol, 1 mM BME, 2 nM DNA, RT 20 min, 1% agarose; recombinant protein; protein details: His6-MBP removed by TEV
[10] = system: AqOrc1 IDR treated with CDK2/CycE (Amphimedon queenslandica); experiment: EMSA; settings: 600 nM, CDK2/CycE-treated, not regulated; EMSA: 50 mM HEPES pH 7.5, 150 mM K-glutamate, 10% glycerol, 1 mM BME, 2 nM DNA, RT 20 min, 1% agarose; recombinant protein; protein details: His6-MBP removed by TEV
[11] = system: AmOrc1 IDR treated with CDK2/CycE (Acropora millepora); experiment: EMSA; settings: 600 nM, CDK2/CycE-treated; EMSA: 50 mM HEPES pH 7.5, 150 mM K-glutamate, 10% glycerol, 1 mM BME, 2 nM DNA, RT 20 min, 1% agarose; recombinant protein; protein details: His6-MBP removed by TEV
[12] = target: DmOrc1 IDR treated with CDK2/CycE (Drosophila melanogaster) (UniProt O16810); experiment: EMSA; settings: 600 nM, CDK2/CycE-treated, free DNA band, label not certain; EMSA: 50 mM HEPES pH 7.5, 150 mM K-glutamate, 10% glycerol, 1 mM BME, 2 nM DNA, RT 20 min, 1% agarose; recombinant protein; residues 187-549; protein details: His6-MBP removed by TEV
[13] = system: HdOrc1 IDR (Hypsibius dujardini); experiment: EMSA; settings: 600 nM; EMSA: 50 mM HEPES pH 7.5, 150 mM K-glutamate, 10% glycerol, 1 mM BME, 2 nM DNA, RT 20 min, 1% agarose; recombinant protein; protein details: His6-MBP removed by TEV
[14] = system: AmOrc1 IDR (Acropora millepora); experiment: EMSA; settings: 600 nM; EMSA: 50 mM HEPES pH 7.5, 150 mM K-glutamate, 10% glycerol, 1 mM BME, 2 nM DNA, RT 20 min, 1% agarose; recombinant protein; protein details: His6-MBP removed by TEV
[15] = system: DgOrc1 IDR treated with CDK2/CycE (Dimorphilus gyrociliatus); experiment: EMSA; settings: 600 nM, CDK2/CycE-treated, only partially regulated; EMSA: 50 mM HEPES pH 7.5, 150 mM K-glutamate, 10% glycerol, 1 mM BME, 2 nM DNA, RT 20 min, 1% agarose; recombinant protein; protein details: His6-MBP removed by TEV
[16] = system: HdOrc1 IDR treated with CDK2/CycE (Hypsibius dujardini); experiment: EMSA; settings: 600 nM, CDK2/CycE-treated, not regulated; EMSA: 50 mM HEPES pH 7.5, 150 mM K-glutamate, 10% glycerol, 1 mM BME, 2 nM DNA, RT 20 min, 1% agarose; recombinant protein; protein details: His6-MBP removed by TEV
[17] = system: AqOrc1 IDR (Amphimedon queenslandica); experiment: EMSA; settings: 600 nM, relatively weak affinity; EMSA: 50 mM HEPES pH 7.5, 150 mM K-glutamate, 10% glycerol, 1 mM BME, 2 nM DNA, RT 20 min, 1% agarose; recombinant protein; protein details: His6-MBP removed by TEV
[18] = system: MyOrc1 IDR treated with CDK2/CycE (Mizuhopecten yessoensis); experiment: EMSA; settings: 600 nM, CDK2/CycE-treated, not regulated; EMSA: 50 mM HEPES pH 7.5, 150 mM K-glutamate, 10% glycerol, 1 mM BME, 2 nM DNA, RT 20 min, 1% agarose; recombinant protein; protein details: His6-MBP removed by TEV
[19] = system: BpOrc1 IDR treated with CDK2/CycE (Brachionus plicatilis); experiment: EMSA; settings: 600 nM, CDK2/CycE-treated; EMSA: 50 mM HEPES pH 7.5, 150 mM K-glutamate, 10% glycerol, 1 mM BME, 2 nM DNA, RT 20 min, 1% agarose; recombinant protein; protein details: His6-MBP removed by TEV

“GAAGCTAGACTTAGGTGTCATATTGAACCTACTATGCCGAACTAGTTACGAGCTATAACC (double strand) [FITC-dsDNA 60 bp]”: binds more weakly [1]; binds more weakly [2]; binds more weakly [3]. “GAAGCTAGACTTAGGTGTCATATTGAACCTACTATGCCGAACTAGTTACGAGCTATAACC (double strand) [FITC-dsDNA 60 bp]”: binds more weakly [4]; no binding [5].
“GAAGCTAGACTTAGGTGTCATATTGAACCTACTATGCCGAACTAGTTACGAGCTATAACC (double strand) [Cy5-dsDNA 60 bp]”: binds more weakly [6]; binds [7]; binds [8]. “GAAGCTAGACTTAGGTGTCATATTGAACCTACTATGCCGAACTAGTTACGAGCTATAACC (double strand) [Cy5-dsDNA 60 bp]”: binds [9]; binds [10]; binds more weakly [11]. “GAAGCTAGACTTAGGTGTCATATTGAACCTACTATGCCGAACTAGTTACGAGCTATAACC (double strand) [Cy5-dsDNA 60 bp]”: binds more weakly [12]; binds [13]; binds [14]. “GAAGCTAGACTTAGGTGTCATATTGAACCTACTATGCCGAACTAGTTACGAGCTATAACC (double strand) [Cy5-dsDNA 60 bp]”: binds more weakly [15]; binds [16]; binds more weakly [17]. “GAAGCTAGACTTAGGTGTCATATTGAACCTACTATGCCGAACTAGTTACGAGCTATAACC (double strand) [Cy5-dsDNA 60 bp]”: binds [18]; binds more weakly [19].

Construct, isoform or probe ends are uncertain for at least one entry. For some of these results: No signal at the amounts used counts as a negative. For some of these results: The comparison behind a weaker result is the experiment's own reference, which may not be listed here. For some of these results: At least one verdict rests on a figure or table, not on a statement of the authors.
